No constants are given. Whether binding was seen depends on the method and setting. Binding seen in cells or lysates may run through a third protein. These calls come from enrichment with a bait or labelling near it, and not all partners need be listed. Tags and fused reporters may be left off the sequences shown.
Molecular target: T1, MCUR1-StrepII-HA-His6 (mitochondrial calcium uniporter regulator 1, C-terminally tagged) (human) (UniProt Q96AQ8)
T1 sequence: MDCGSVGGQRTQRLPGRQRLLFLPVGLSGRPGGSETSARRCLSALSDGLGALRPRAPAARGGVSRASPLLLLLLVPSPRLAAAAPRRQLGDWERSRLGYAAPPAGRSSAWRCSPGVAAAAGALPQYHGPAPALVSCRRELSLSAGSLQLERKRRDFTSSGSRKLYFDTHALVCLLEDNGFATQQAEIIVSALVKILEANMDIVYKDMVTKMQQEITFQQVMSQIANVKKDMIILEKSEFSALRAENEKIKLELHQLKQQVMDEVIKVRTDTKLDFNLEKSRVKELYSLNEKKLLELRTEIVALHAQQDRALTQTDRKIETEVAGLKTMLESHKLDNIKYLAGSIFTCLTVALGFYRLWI
Experiment: affinity purification with mass spectrometry

| Molecule | binding |
| --- | --- |
| Phenylalanyl-tRNA synthetase 2, mitochondrial (FARS2) (human (endogenous in HEK-293)) (enzyme) | binds |
| Coiled-coil domain-containing protein 90B (CCDC90B), endogenous in HEK-293 (protein, UniProt Q9GZT6 43-254) GYDRRPVDITPLEQRKLTFDTHALVQDLETHGFDKTQAETIVSALTALSNVSLDTIYKEMVTQAQQEITVQQLMAHLDAIRKDMVILEKSEFANLRAENEKMKIELDQVKQQLMHETSRIRADNKLDINLERSRVTDMFTDQEKQLMETTTEFTKKDTQTKSIISETSNKIDAEIASLKTLMESNKLETIRYLAASVFTCLAIALGFYRFWK | binds |
| Tryptophanyl-tRNA synthetase 2, mitochondrial (WARS2) (enzyme, UniProt Q9UGM6 19-360) LHKGSAAAPALQKDSKKRVFSGIQPTGILHLGNYLGAIESWVRLQDEYDSVLYSIVDLHSITVPQDPAVLRQSILDMTAVLLACGINPEKSILFQQSQVSEHTQLSWILSCMVRLPRLQHLHQWKAKTTKQKHDGTVGLLTYPVLQAADILLYKSTHVPVGEDQVQHMELVQDLAQGFNKKYGEFFPVPESILTSMKKVKSLRDPSAKMSKSDPDKLATVRITDSPEEIVQKFRKAVTDFTSEVTYDPAGRAGVSNIVAVHAAVTGLSVEEVVRRSAGMNTARYKLAVADAVIEKFAPIKREIEKLKLDKDHLEKVLQIGSAKAKELAYTVCQEVKKLVGFL | binds |
| Isoleucyl-tRNA synthetase 2, mitochondrial (IARS2) (enzyme, UniProt Q9NSE4 49-1012) SNHQPNSNSGRYRDTVLLPQTSFPMKLLGRQQPDTELEIQQKCGFSELYSWQRERKVKTEFCLHDGPPYANGDPHVGHALNKILKDIANRFHMMNGSKIHFVPGWDCHGLPIEIKVLSELGREAQNLSAMEIRKKARSFAKAAIEKQKSAFIRWGIMADWNNCYYTFDGKYEAKQLRTFYQMYDKGLVYRSYKPVFWSPSSRTALAEAELEYNPEHVSRSIYVKFPLLKPSPKLASLIDGSSPVSILVWTTQPWTIPANEAVCYMPESKYAVVKCSKSGDLYVLAADKVASVASTLETTFETISTLSGVDLENGTCSHPLIPDKASPLLPANHVTMAKGTGLVHTAPAHGMEDYGVASQHNLPMDCLVDEDGVFTDVAGPELQNKAVLEEGTDVVIKMLQTAKNLLKEEKLVHSYPYDWRTKKPVVIRASKQWFINITDIKTAAKELLKKVKFIPGSALNGMVEMMDRRPYWCISRQRVWGVPIPVFHHKTKDEYLINSQTTEHIVKLVEQHGSDIWWTLPPEQLLPKEVLSEVGGPDALEYVPGQDILDIWFDSGTSWSYVLPGPDQRADLYLEGKDQLGGWFQSSLLTSVAARKRAPYKTVIVHGFTLGEKGEKMSKSLGNVIHPDVVVNGGQDQSKEPPYGADVLRWWVADSNVFTEVAIGPSVLNAARDDISKLRNTLRFLLGNVADFNPETDSIPVNDMYVIDQYMLHLLQDLANKITELYKQYDFGKVVRLLRTFYTRELSNFYFSIIKDRLYCEKENDPKRRSCQTALVEILDVIVRSFAPILPHLAEEVFQHIPYIKEPKSVFRTGWISTSSIWKKPGLEEAVESACAMRDSFLGSIPGKNAAEYKVITVIEPGLLFEIIEMLQSEETSSTSQLNELMMASESTLLAQEPREMTADVIELKGKFLINLEGGDIREESSYKVIVMPTTKEKCPRCWKYTAESSDTLCPRCAEVVSGK | binds |
